Where “and” joins values, the source holds several entries; their conditions need not be identical. Equal values may be shown once. Inconclusive results, whose numbers are uncertain, are shown with a selection of clear calls. For some assays here: Where the call is inconclusive, the potency comes from a doubtful curve fit. Calls of active or inactive are those of the source. The calls were made as follows: active = hit-call score of the fitted dose curve at least 0.9, where 1 is the maximum; inconclusive = response in the unintended direction; inactive = score below 0.9.
Key:
[1] = CCTE_Shafer_MEA_acute_AB: CCTE's Alamar Blue Assay for Cytotoxicity in the Neural Acute Assay, Shafer Lab (AID 2284069);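 also: active compounds lower the viability signal compared with DMSO wells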
In short: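 Resazurin reduction (CellTiter Blue, 1:6 in fresh medium) read at ex 544/em 590 nm marks viability loss relative to DMSO. Cells: primary rat cortical neuron networks on microelectrode arrays, treated after baseline recording at 13 or 15 days in vitro.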

Amino acid sequences for entries named in this document (tags omitted).
UniProt P03372, whole entry, looked up: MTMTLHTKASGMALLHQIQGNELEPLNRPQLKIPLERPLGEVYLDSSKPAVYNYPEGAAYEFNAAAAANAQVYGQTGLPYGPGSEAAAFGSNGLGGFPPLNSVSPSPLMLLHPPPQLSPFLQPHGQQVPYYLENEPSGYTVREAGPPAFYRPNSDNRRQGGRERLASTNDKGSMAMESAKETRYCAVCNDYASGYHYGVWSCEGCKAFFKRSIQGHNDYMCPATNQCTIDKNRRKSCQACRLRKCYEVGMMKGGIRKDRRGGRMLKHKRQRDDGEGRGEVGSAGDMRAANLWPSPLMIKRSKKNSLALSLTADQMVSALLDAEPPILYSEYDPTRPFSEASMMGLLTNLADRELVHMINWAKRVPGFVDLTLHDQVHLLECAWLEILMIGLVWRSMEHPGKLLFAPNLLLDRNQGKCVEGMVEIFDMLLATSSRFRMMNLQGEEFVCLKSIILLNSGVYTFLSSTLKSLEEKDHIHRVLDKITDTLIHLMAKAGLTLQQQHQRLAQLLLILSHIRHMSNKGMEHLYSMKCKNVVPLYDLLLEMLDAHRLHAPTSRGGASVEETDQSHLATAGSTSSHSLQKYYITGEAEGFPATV

[2] = CCTE_Shafer_MEA_dev_AB: CCTE's Alamar Blue Assay for Cytotoxicity in the Neural Network Formation Assay, Shafer Lab (AID 2284083);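 also: resazurin reduction fluorescence as viability of cultured neurons; twelve days of exposure from plating with re-dosing on DIV 5 and 9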
In short: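 Resazurin fluorescence, relative to DMSO, gauges viability after twelve days of exposure that began at plating of rat cortical neurons (1.5 x 10^5 cells/well, 48-well MEA); treatment renewed with full medium exchange on DIV 5 and 9.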

[3] = CCTE_Harrill_HTTr_CellCount_MCF7: CCTE's Cell Proliferation Assessment for the High-Throughput Transcriptomics (HTTr) Platform, Harrill Lab (AID 2284012);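 also: cells exposed to compound for six hours; intended direction is loss of nuclei count meaning fewer cells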
In short: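 Cell count from high-content imaging of Hoechst-labeled nuclei serves as viability/growth readout. Chemicals were applied to MCF-7 cells in eight concentrations for six hours, with fitting in both directions relative to DMSO.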

[4] = molecular target: Estrogen receptor (Homo sapiens) (UniProt P03372); experiment: CCTE_Deisenroth_AIME_384WELL_LUC_Active: CCTE's 384-well Estrogen Receptor Transactivation Assay with AIME metabolic competence (ERTA luciferase; metabolism positive), Deisenroth Lab (AID 2284030)
In short: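 In this metabolism-positive format, a 2-hour exposure to alginate-immobilized rat S9 precedes a 24 hour luciferase transactivation readout in VM7Luc4E2 cells. Dosing spans 10 concentrations from 0.002 to 200 uM.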

[5] = CCTE_Deisenroth_AIME_384WELL_CTox_Active: Cytotoxicity Assessment (CTOX) in CCTE's 384-well Estrogen Receptor Transactivation Assay with AIME metabolic competence (metabolism positive), Deisenroth Lab (AID 2284037);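 also: chemicals first conditioned 2 h by alginate-bound induced rat liver S9 before cells; activity means signal loss indicating cell death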
In short: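 Cytotoxicity in VM7Luc4E2 breast cells, 24 hour, measured as protease-substrate fluorescence loss, after 2-hour metabolic conditioning with induced rat hepatic S9 in alginate microspheres. Concentrations 0.002 - 200 uM, 10 points, bidirectional fitting.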

[6] = molecular target: Estrogen receptor (Homo sapiens) (UniProt P03372); experiment: CCTE_Deisenroth_AIME_384WELL_LUC_Inactive: CCTE's 384-well Estrogen Receptor Transactivation Assay without AIME metabolic competence (ERTA luciferase; metabolism negative), Deisenroth Lab (AID 2284038);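 also: hits raise estrogen receptor luciferase signal so potencies reflect agonists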
In short: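 VM7Luc4E2 ER transactivation, luciferase bioluminescence after 24 h, using medium pre-incubated 2 h with S9-free alginate microspheres. Concentrations 0.002–200 uM; gain of signal fitted relative to 17beta-estradiol.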

[7] = CCTE_Deisenroth_AIME_96WELL_CTox_Active: Cytotoxicity Assessment (CTOX) in CCTE's 96-well Estrogen Receptor Transactivation Assay with AIME metabolic competence (metabolism positive), Deisenroth Lab (AID 2284028)
In short: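 Cytotoxicity in VM7Luc4E2 breast cells after 24 h exposure to medium from a 2 h metabolic pre-incubation with induced rat hepatic S9 in alginate microspheres; fluorescent live-cell protease readout, 10-point series 0.002–200 uM, n=4.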

[8] = CCTE_Deisenroth_AIME_96WELL_CTox_Inactive: Cytotoxicity Assessment (CTOX) in CCTE's 96-well Estrogen Receptor Transactivation Assay without AIME metabolic competence (metabolism negative), Deisenroth Lab (AID 2284029)
In short: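 Metabolism-negative mode: alginate-water lids without rat S9, 2 h pre-incubation of 10-point series (0.002 - 200 uM). Conditioned medium on VM7Luc4E2 cells 24 h; loss of fluorescent live-cell protease signal marks cytotoxicity.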

[9] = CCTE_Shafer_MEA_dev_bursting_electrodes_number: CCTE's Neural Network Formation Assay for Number of Bursting Electrodes, Shafer Lab (AID 2284043);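 also: potency is for loss of bursting electrodes relative to DMSO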
In short: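 Number of electrodes reaching ≥1 burst every 2 min was recorded at DIV 5, 7, 9 and 12 and collapsed as trapezoidal area under the curve. Cultures were rat cortical neurons on MEA plates, dosed continuously from plating with medium and treatment refreshed on DIV 5 and 9.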

[10] = CCTE_Shafer_MEA_acute_LDH: CCTE's Lactate Dehydrogenase Assay for Cytotoxicity in the Neural Acute Assay, Shafer Lab (AID 2284086);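 also: active means LDH release rises above DMSO vehicle level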
In short: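 LDH released during 40 min compound exposure of primary rat cortical cultures, quantified by absorbance at 490 nm in collected medium. Fitting direction positive versus DMSO vehicle.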

[11] = CCTE_Deisenroth_AIME_384WELL_CTox_Inactive: Cytotoxicity Assessment (CTOX) in CCTE's 384-well Estrogen Receptor Transactivation Assay without AIME metabolic competence (metabolism negative), Deisenroth Lab (AID 2284039);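 also: cell viability via live-cell protease substrate cleaved to fluorescent probe; cells exposed 24 h to medium preincubated 2 h with alginate-water beads without S9; loss of fluorescence signal means loss of viability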
In short: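 Fluorescent protease-substrate viability readout after 24 h exposure of VM7Luc4E2 cells to conditioned medium. Chemicals (0.002–200 uM) first sat 2 h over alginate-water beads, no S9. Data fitted bidirectionally, loss of signal meaning viability loss.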

C#CCOS(=O)OC1CCCCC1Oc1ccc(C(C)(C)C)cc1 (centres undefined)
outcome [1]: inactive

CC[C@H](C)[C@H]1O[C@]2(C=C[C@@H]1C)C[C@@H]1C[C@@H](C/C=C(\C)[C@@H](O[C@H]3C[C@H](OC)[C@@H](O[C@H]4C[C@H](OC)[C@@H](NC)[C@H](C)O4)[C@H](C)O3)[C@@H](C)/C=C/C=C3\CO[C@@H]4[C@H](O)C(C)=C[C@@H](C(=O)O1)[C@]34O)O2
AC50 [2]: active: 656 nM and inconclusive: 25 nM

CCOP(=S)(OCC)SCSC(C)(C)C
outcome [3]: inactive

CCc1nn(C)c(C(=O)NCc2ccc(C(C)(C)C)cc2)c1Cl
AC50 [3]: inconclusive: 47.5 µM
AC50 [4]: inconclusive: 0.315 µM
AC50 [5]: active: 1.82 µM
AC50 [6]: inconclusive: 0.213 µM

Clc1ccc(Cl)cc1
AC50 [3]: inconclusive: 50 µM
AC50 [5]: inconclusive: 0.0002 µM

CC(=O)c1cc(C(C)(C)C)cc2c1CCC2(C)C
AC50 [3]: inconclusive: 3.14 µM
outcome [4]: inactive

Clc1ccc(C2(Cn3cncn3)CC(Br)CO2)c(Cl)c1 (centres undefined)
outcome [3]: inactive

CCC12COCN1COC2
outcome [3]: inactive

O=C(Nc1ccccc1)c1ccccc1I
AC50 [3]: inconclusive: 50 µM
AC50 [4]: active: 38.4 µM
AC50 [5]: inconclusive: 0.121 µM
AC50 [6]: active: 23.7 µM

COc1ccc(C(c2ccc(OC)cc2)C(Cl)(Cl)Cl)cc1
outcome [3]: inactive
AC50 [7]: active: 102 µM
AC50 [8]: active: 72.4 µM
AC50 [9]: active: 6.57 µM
AC50 [10]: inconclusive: 19.9 µM

Oc1c(Br)cc(Br)cc1Br
AC50 [3]: inconclusive: 50 µM

O=C(Cc1ccccc1)c1ccccc1
outcome [3]: inactive
AC50 [4]: active: 112 µM

CC(C)NC(=O)N1CC(=O)N(c2cc(Cl)cc(Cl)c2)C1=O
AC50 [3]: inconclusive: 50 µM

CC(C)(O)C(=O)Nc1ccc([N+](=O)[O-])c(C(F)(F)F)c1
AC50 [3]: inconclusive: 50 µM

O=Cc1cccc(Oc2ccccc2)c1
AC50 [3]: inconclusive: 50 µM

Fc1ccc(C2(Cn3cncn3)OC2c2ccccc2Cl)cc1 (centres undefined)
AC50 [3]: inconclusive: 50 µM

C#CCN1C(=O)COc2cc(F)c(N3C(=O)C4=C(CCCC4)C3=O)cc21
AC50 [3]: inconclusive: 50 µM

O=[N+]([O-])c1ccccc1
outcome [3]: inactive
outcome [5]: inactive

COc1ccccc1OC
AC50 [3]: inconclusive: 50 µM

COc1nc(NC(C)C)nc(NC(C)C)n1
AC50 [3]: inconclusive: 50 µM

CNC(=O)N(C)c1nnc(C(C)(C)C)s1
AC50 [3]: inconclusive: 50 µM
outcome [4]: inactive
AC50 [5]: inconclusive: 100 µM
AC50 [11]: inconclusive: 100 µM

CCOS(=O)(=O)OCC
outcome [3]: inactive
AC50 [5]: inconclusive: 0.000302 µM

C[As+](C)(C)CC(=O)[O-]
AC50 [3]: inconclusive: 50 µM

CCOc1cccc(C2(N3CCN(c4ccccc4)CC3)CCC(C)CC2)c1 (centres undefined)
outcome [3]: inactive

COc1cc(OC)nc(NC(=O)NS(=O)(=O)c2ncccc2OCC(F)(F)F)n1
AC50 [3]: inconclusive: 0.0895 µM
outcome [4]: inactive
outcome [11]: inactive

Oc1ccc(-c2ccccc2)cc1
outcome [3]: inactive

CCCN(CC1CC1)c1c([N+](=O)[O-])cc(C(F)(F)F)cc1[N+](=O)[O-]
AC50 [3]: inconclusive: 50 µM

ClCCBr
AC50 [3]: inconclusive: 50 µM

C=CC#N
AC50 [3]: inconclusive: 50 µM
AC50 [7]: inconclusive: 19.8 µM
AC50 [8]: inconclusive: 19.8 µM

C=CCC1=C(C)C(OC(=O)C2C(C=C(C)C)C2(C)C)CC1=O (centres undefined)
AC50 [3]: inconclusive: 52.5 µM
AC50 [4]: inconclusive: 0.0003 µM
AC50 [5]: inconclusive: 0.00168 µM
AC50 [11]: inconclusive: 100 µM
outcome [10]: inactive

CC(C)(C)c1ccc(CSc2cnn(C(C)(C)C)c(=O)c2Cl)cc1
AC50 [3]: inconclusive: 50 µM
AC50 [4]: inconclusive: 0.345 µM
AC50 [5]: active: 19.8 µM
AC50 [6]: inconclusive: 0.356 µM

O=C1C(Cl)=C(Cl)C(=O)C(Cl)=C1Cl
outcome [3]: inactive

CC(C)(C)c1ccc(O)cc1
outcome [3]: inactive

C[N+](C)(C)CC(=O)O
outcome [3]: inactive

C1CCC(NC2CCCCC2)CC1
AC50 [3]: inconclusive: 50 µM

c1ccc2c(c1)-c1cccc3cccc-2c13
AC50 [3]: inconclusive: 9.92 µM
AC50 [7]: inconclusive: 19.8 µM
AC50 [8]: inconclusive: 20.8 µM

CN=C=S
AC50 [3]: inconclusive: 50 µM
outcome [5]: inactive

CCCCOCCOP(=O)(OCCOCCCC)OCCOCCCC
AC50 [3]: inconclusive: 50 µM
AC50 [4]: inconclusive: 158 µM
AC50 [5]: inconclusive: 0.000225 µM
AC50 [6]: inconclusive: 159 µM
AC50 [11]: inconclusive: 0.00023 µM
